Values quoted from earlier work, collected in US9233128B2, “Use of cryptotanshinone” (Catholic University Industry Academic Cooperation Foundation, priority 2010, dated 2016).
At least one structure is not confirmed: it was looked up by name or label, or the drawing left a doubt.

Tested on: obese rats
Conditions: after administration of cryptotanshinone; cited from earlier work

In the case of C[C@H]1COC2=C1C(=O)C(=O)c1c2ccc2c1CCCC2(C)C [cryptotanshinone], the appetite is given as “decline in an appetite” and the “loss of a weight” value is given as 30%.
